Reference: PubChem BioAssay AID248 (DTP/NCI, 2004)
The list shows only some results of the screen, not a fair sample: it gathers tests that were run many times, whatever their T/C, doses with no T/C, and many T/C values between a quarter and a half above the control. Other doses and runs of a compound stand elsewhere. T/C: endpoint of the treated group in % of that of the vehicle group. Where survival is the endpoint, this PubChem deposit counts one and a half times the control or more as active, and values a quarter to a half above the control carry no call in these data; other NCI protocols may use other cut-offs. Schedule codes are those of the source, read here as Q, the interval in days (D) or hours (H), X, the number of doses. Some doses were run more than once; the results are listed from low to high. Signs of the kind (2×) say how often a value occurs here. Some schedules carry Z or #; the key to these is not given. Some T/C values carry the count of animals alive at the toxicity check (mostly the fifth day); without a count, all were alive then.

Tested on: L1210 leukemia ip in BDF1 mice, survival T/C
Test: NCI In Vivo Anticancer Drug Screen. Data for tumor model L1210 Leukemia (intraperitoneal) in B6D2F1 (BDF1) mice
Conditions: T/C endpoint: mean survival time, higher T/C = longer survival

With O=c1[nH]c(=O)n(C2CC(O)C(CO)O2)cc1F (stereo not given) the T/C (dose: 10.0 mg/kg/injection, schedule: Q01DX009 (ip), vehicle: saline) was 126 % of control, the T/C (dose: 12.5 mg/kg/injection, schedule: Q#A X Z (ip), vehicle: saline) was 131 and 132 % of control and the T/C (dose: 18.0 mg/kg/injection, schedule: Q01DX009 (ip), vehicle: saline) was 101, 114, 117, 118 % of control. For the same molecule, the T/C (dose: 20.0 mg/kg/injection, schedule: Q01DX009 (ip), vehicle: saline) was 120, 122, 130, 138 % of control, the T/C (dose: 20.0 mg/kg/injection, schedule: Q01DX015 (ip), vehicle: saline) was 134 % of control and the T/C (dose: 25.0 mg/kg/injection, schedule: Q01DX009 (ip), vehicle: saline) was 129 % of control. The T/C (dose: 25.0 mg/kg/injection, schedule: Q01DX Z (ip), vehicle: carboxymethylcellulose (CMC)) was 127 % of control, the T/C (dose: 25.0 mg/kg/injection, schedule: Q01DX Z (ip), vehicle: saline) was 131 % of control and the T/C (dose: 25.0 mg/kg/injection, schedule: Q#A X034 (ip), vehicle: saline) was 130 % of control. The T/C (dose: 25.0 mg/kg/injection, schedule: Q#A X Z (ip), vehicle: saline) was 142 and 146 % of control, the T/C (dose: 30.0 mg/kg/injection, schedule: Q01DX005 (ip), vehicle: water, evaluated on day 21) was 111 % of control and the T/C (dose: 30.0 mg/kg/injection, schedule: Q01DX005 (ip), vehicle: water, evaluated on day 30) was 96, 106, 109 % of control. The T/C (dose: 30.0 mg/kg/injection, schedule: Q01DX015 (ip), vehicle: saline) was 136 % of control, the T/C (dose: 36.0 mg/kg/injection, schedule: Q01DX009 (ip), vehicle: saline) was 114, 121, 123 % of control (2×) and the T/C (dose: 40.0 mg/kg/injection, schedule: Q01DX009 (ip), vehicle: saline) was 125, 138, 139, 142 % of control. The T/C (dose: 40.0 mg/kg/injection, schedule: Q01DX Z (ip), vehicle: other) was 127 and 143 % of control, the T/C (dose: 43.2 mg/kg/injection, schedule: Q01DX009 (ip), vehicle: saline) was 144 % of control and the T/C (dose: 45.0 mg/kg/injection, schedule: Q01DX015 (ip), vehicle: saline) was 135 % of control. For the same molecule, the T/C (dose: 45.0 mg/kg/injection, schedule: Q01DX015 (ip), vehicle: water) was 126 % of control, the T/C (dose: 50.0 mg/kg/injection, schedule: Q01DX005 (ip), vehicle: water, evaluated on day 21) was 111 % of control and the T/C (dose: 50.0 mg/kg/injection, schedule: Q01DX005 (ip), vehicle: water, evaluated on day 30) was 97, 109, 122 % of control. The T/C (dose: 50.0 mg/kg/injection, schedule: Q01DX009 (ip), vehicle: saline) was 138 and 147 % of control, the T/C (dose: 50.0 mg/kg/injection, schedule: Q01DX017 (ip), vehicle: saline) was 131 % of control and the T/C (dose: 50.0 mg/kg/injection, schedule: Q01DX Z (im), vehicle: saline) was 127 % of control. The T/C (dose: 50.0 mg/kg/injection, schedule: Q01DX Z (ip), vehicle: carboxymethylcellulose (CMC)) was 127 % of control, the T/C (dose: 50.0 mg/kg/injection, schedule: Q01DX Z (ip), vehicle: saline) was 127, 130, 136, 137 % of control and the T/C (dose: 50.0 mg/kg/injection, schedule: Q01DX Z (sc), vehicle: saline) was 127 % of control. For the same molecule, the T/C (dose: 60.0 mg/kg/injection, schedule: Q01DX009 (ip), vehicle: saline) was 138 % of control, the T/C (dose: 67.0 mg/kg/injection, schedule: Q01DX Z (ip), vehicle: saline) was 134 % of control and the T/C (dose: 68.0 mg/kg/injection, schedule: Q01DX015 (ip), vehicle: water) was 136 % of control. For the same molecule, the T/C (dose: 71.0 mg/kg/injection, schedule: Q04DX002 (ip), vehicle: saline) was 103, 105 (2×), 115 % of control, the T/C (dose: 72.0 mg/kg/injection, schedule: Q01DX009 (ip), vehicle: saline, evaluated on day 30) was 131, 140, 147, 158 % of control and the T/C (dose: 72.0 mg/kg/injection, schedule: Q01DX009 (ip), vehicle: saline, evaluated on day 60) was 144 % of control. The T/C (dose: 74.0 mg/kg/injection, schedule: Q01DX009 (ip), vehicle: saline) was 137 and 141 % of control, the T/C (dose: 80.0 mg/kg/injection, schedule: Q01DX009 (ip), vehicle: saline, evaluated on day 5) was 142 % of control and the T/C (dose: 80.0 mg/kg/injection, schedule: Q01DX009 (ip), vehicle: saline, evaluated on day 30) was 142, 151, 153, 154 % of control. For the same molecule, the T/C (dose: 80.0 mg/kg/injection, schedule: Q01DX015 (ip), vehicle: saline) was 148 % of control, the T/C (dose: 80.0 mg/kg/injection, schedule: Q## X009 (ip), vehicle: saline) was 142 % of control and the T/C (dose: 100.0 mg/kg/injection, schedule: Q01DX005 (ip), vehicle: saline, evaluated on day 30) was 139 % of control. For the same molecule, the T/C (dose: 100.0 mg/kg/injection, schedule: Q01DX005 (ip), vehicle: saline, run until all animals had died) was 139 % of control, the T/C (dose: 100.0 mg/kg/injection, schedule: Q01DX006 (iv), vehicle: saline) was 126 % of control and the T/C (dose: 100.0 mg/kg/injection, schedule: Q01DX009 (ip), vehicle: saline) was 127 % of control. The T/C (dose: 100.0 mg/kg/injection, schedule: Q01DX Z (im), vehicle: saline) was 141 % of control, the T/C (dose: 100.0 mg/kg/injection, schedule: Q01DX Z (ip), vehicle: saline) was 128 % of control and the T/C (dose: 100.0 mg/kg/injection, schedule: Q01DX Z (oral), vehicle: saline) was 131 % of control [5 of 6 alive]. The T/C (dose: 100.0 mg/kg/injection, schedule: Q02DX009 (ip), vehicle: saline) was 126 % of control, the T/C (dose: 100.0 mg/kg/injection, schedule: Q#A X034 (ip), vehicle: saline) was 130 % of control and the T/C (dose: 110.0 mg/kg/injection, schedule: Q01DX009 (ip), vehicle: saline) was 142 % of control. For the same molecule, the T/C (dose: 118.0 mg/kg/injection, schedule: Q## X032 (ip), vehicle: saline) was 131 % of control and the T/C (dose: 120.0 mg/kg/injection, schedule: Q01DX009 (ip), vehicle: saline, evaluated on day 5) was 149 % of control.
